Results reported in article PMC5799093, “Proceedings of Réanimation 2018, the French Intensive Care Society International Congress” (Annals of Intensive Care, 2018).

Experiment: Hemodynamic and metabolic effects of molar sodium lactate infusion in critically ill patients (P-135)
Format: in vivo, human
Method: Patients and methods: This was a retrospective study performed in a large University Hospital. All patients receiving the molecule were included in the analysis. Indication for sodium lactate, dose, and modality of administration were collected. We also collected clinical and biological variables before sodium lactate infusion, after 6 h (H6), and after 24 h (H24). An analysis of the evolution of these variables at H6 and H24 was performed.

CC(O)C(=O)[O-].[Na+] (stereo not shown) [sodium lactate]
plasma lactate concentration (at H6, p < 0.0001): increased
plasma lactate concentration (at H24, p = 0.99): not different from basal value
chloride sodium ratio (human, in vivo): significantly reduced
plasma chloride (human, in vivo): no significant variation
